Results published in US20250388684A1.
These are yes or no findings as the source states them, for the method shown. Some binding calls cover weakened binding; strength is not graded here.

Chains of the proteins cited; added tags and fusions are not shown. Lines headed by an entry give the natural chain unless they say otherwise; changes in a name come on top. A line that says so, or that is headed by a name, gives the form on record, which may keep a tag or linker.
cynomolgus monkey CCR8 (G7NYJ2, form named): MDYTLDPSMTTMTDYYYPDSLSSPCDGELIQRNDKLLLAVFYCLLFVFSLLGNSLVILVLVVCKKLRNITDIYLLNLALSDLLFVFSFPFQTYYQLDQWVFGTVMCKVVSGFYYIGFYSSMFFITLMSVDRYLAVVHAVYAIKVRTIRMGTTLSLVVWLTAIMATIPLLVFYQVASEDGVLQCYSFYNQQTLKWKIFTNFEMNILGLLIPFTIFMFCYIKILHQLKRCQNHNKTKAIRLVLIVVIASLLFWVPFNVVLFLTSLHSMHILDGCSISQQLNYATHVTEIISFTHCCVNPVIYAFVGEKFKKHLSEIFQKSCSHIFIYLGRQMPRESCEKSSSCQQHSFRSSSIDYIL

Target: cynomolgus monkey CCR8 (cynomolgus monkey) (UniProt G7NYJ2)
Assay: FACS on HEK293T-c.CCR8 cells, mouse antibody

binding: binds
B1: 13F3H6 (anti-human CCR8 mouse monoclonal antibody) (antibody, V domains shown)
VH: EVQLVESGGGLVRPKGSLKFSCAASGFTFNAYAMNWVRQAPGKGLEWVARIRTKSNNYATYYADSVKDRFTISRDDSENMLYLQMNNLKTEDTAIYYCVRHKKVREGYAMDYWGQGTSVTVSS
VL: DIVLTQSPASLVLSLGQRATISCRASKSVSTSGYTYMHWYQQKPGQPPKLLIYLASNLESGVPARFSGSGSGTDFTLNIHPVEEEDAATYYCQHSRELPFTFGSGTKLEIK
